Protein sequences, listed by entry. Tags and fused reporters are not part of them. Lines headed by an entry give the natural chain unless they say otherwise; changes in a name come on top.
UniProt P51450: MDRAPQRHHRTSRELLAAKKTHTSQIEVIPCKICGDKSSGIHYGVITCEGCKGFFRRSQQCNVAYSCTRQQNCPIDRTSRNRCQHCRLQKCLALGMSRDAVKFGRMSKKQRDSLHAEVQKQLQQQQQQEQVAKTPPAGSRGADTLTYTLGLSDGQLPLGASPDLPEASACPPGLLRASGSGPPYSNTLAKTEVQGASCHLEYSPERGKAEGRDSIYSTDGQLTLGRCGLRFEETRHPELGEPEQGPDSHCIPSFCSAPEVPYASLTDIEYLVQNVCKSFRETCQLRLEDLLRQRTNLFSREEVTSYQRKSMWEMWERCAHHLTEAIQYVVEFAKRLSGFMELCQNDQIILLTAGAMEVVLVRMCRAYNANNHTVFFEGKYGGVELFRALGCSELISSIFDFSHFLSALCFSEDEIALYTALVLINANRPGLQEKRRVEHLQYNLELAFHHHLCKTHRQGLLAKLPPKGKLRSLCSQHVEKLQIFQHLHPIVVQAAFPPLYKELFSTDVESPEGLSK

Among all 310,000 compounds or so, about 17,000 (5.5%) were called active. Inconclusive results, whose numbers are uncertain, are shown with a selection of clear calls. Calls follow the shape of the dose curve; as a rule, active = well fitted inhibition curve with a large enough effect; inconclusive = small, poorly fitted or top-dose-only effect, or effect the other way; inactive = no such curve, though single readings can be large or run the other way. Where the call is inconclusive, the potency comes from a doubtful curve fit.
These compounds were tested against Nuclear receptor ROR-gamma (Mus musculus) (UniProt P51450) (assay: qHTS for inhibitors of ROR gamma transcriptional activity). Conditions: Drosophila S2 Gal4-RORgamma UAS-luciferase reporter, 20 h; activity change, negative = inhibition: at 53.6 µM (top of the series).
Procedure, shortened: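 ROR gamma transcriptional activity was tracked as Gal4-UAS luciferase output in stably transfected Drosophila Schneider cells, with compound added 1 hr before 700 uM copper sulfate induction and a 20 hr ambient-temperature incubation.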
For `COc1ccc(Nc2cc(C(=O)NCc3ccco3)c3ccccc3n2)cc1`, the Potency was “inactive”.
`Cc1nc2cnc(OCc3ccccc3)nc2n(CCc2ccccc2)c1=O` was tested, and the Potency was inconclusive: 11.2 µM [activator, partial curve].
In the case of `C=CCN(CC=C)S(=O)(=O)c1ccc(NC(=S)NC(=O)/C=C/c2cccc3ccccc23)cc1`, the Potency is reported as active: 2.24 µM.
`COn1c(SCc2ccc(Cl)cc2)nc2ccccc2c1=O` was tested, and the Potency was inconclusive: 12.6 µM [activator, partial curve].
In the case of `Cc1cnc(CNc2ncnc3ccc(-c4ccccc4C(F)(F)F)cc23)cn1`, the Potency is reported as inconclusive: 35.5 µM [activator, single point].
`O=C(Nn1c(=O)[nH]c2ccsc2c1=O)c1ccccc1` was tested, and the Potency was “inactive”.
For `COc1ccc2c(c1)C(=O)[C@@H](OC(=O)NC1CCCC1)[C@H](c1ccc(OC)c(Br)c1)O2`, the Potency was “inactive”.
In the case of `CC1c2ccccc2SC(CCCN(C)C)c2ccccc21` (centres undefined), the Potency is reported as inconclusive: 17.8 µM [inhibitor, single point].
In the case of `O=C1CSC(=S)N1/N=C/c1ccc2c(c1)OCCO2`, the Potency is reported as “inactive”.
In the case of `CCCNC(=O)CCC(=O)Nc1ncc(-c2ccc(C)cc2)n1C`, the Potency is reported as active: 3.55 µM.
With `CC1CCN(C(=O)c2cc3ccccc3o2)CC1` the Potency was inconclusive: 0.355 µM [activator, full curve].
In the case of `COc1ccc(CNc2cc([N+](=O)[O-])ccc2OC)cc1`, the Potency is reported as inconclusive: 35.5 µM [activator, single point].
In the case of `COC(C[C@@H](O)[C@@H](C)[C@H](O)COCc1ccccc1)OC`, the Potency is reported as “inactive”.
For `O=C(c1ccc2oc(CCCc3ccccc3)nc2c1)N1CCCC(CCCO)C1` (centres undefined), the Potency was inconclusive: 14.1 µM [activator, single point].
For `C/C(N)=C(/C#N)C(=O)CSc1nnnn1-c1ccc(C)cc1`, the Potency was inconclusive: 3.98 µM [activator, full curve].
`CCOC(=O)CN1C(=O)N[C@@H](c2ccc(Br)cc2)C(C(=O)OC)=C1C` was tested, and the Potency was “inactive”.
In the case of `CCC(Nc1nc(-c2ccccc2)nc2ccccc12)C(=O)O` (centres undefined), the Potency is reported as “inactive”.
`COc1cccc(C(=O)c2sc(NC(C)C)nc2N)c1` was tested, and the Potency was inconclusive: 11.2 µM [inhibitor, single point].
For `CN(C)c1ccc(/C=C/C(=O)c2ccc(O)cc2)cc1[N+](=O)[O-]`, the Potency was active: 1.41 µM.
`COc1ccc(N/C=C\C(=O)c2ccc3c(c2)OCO3)cc1` was tested, and the Potency was inconclusive: 0.112 µM [activator, full curve, poor fit].
In the case of `OCCNc1nc(N2CCCCC2)nc2ccccc12`, the Potency is reported as “inactive”.
`O=c1c(-c2ccc(Cl)cc2)nc2cnc(N3CCOCC3)nc2n1C1CC1` was tested, and the Potency was “inactive”.
`O=C1N=c2ccccc2=C1c1c(O)n(-c2cccc(F)c2)[nH]c1=O` was tested, and the Potency was “inactive”.
`Cc1cc(NC(=O)COC(=O)C2CCN(S(=O)(=O)c3cccc(Cl)c3Cl)CC2)no1` was tested, and the Potency was “inactive”.
For `CC(C)C(=O)N1CCN(c2ccc([N+](=O)[O-])cc2Cl)CC1`, the Potency was inconclusive: 15.8 µM [activator, single point].
For `Cc1ccc(NC(=S)N(CCCN2CCOCC2)Cc2ccco2)cc1C`, the Potency was inconclusive: 17.8 µM [inhibitor, single point].
For `Cc1cc(C)c(OCCCCCn2ccnc2)c(C)c1`, the Potency was active: 11.2 µM.
In the case of `c1ccc(Cn2nc(-c3ccccc3)nc2-c2ccccc2)cc1`, the activity change, negative = inhibition is reported as inactive: 19.8% [at 10 µM].
For `O=C1OC2(CCCCC2)OC(=O)C1=CNc1nccs1`, the Potency was “inactive”.
For `O=C(CC(Nc1cccc(Cl)c1Cl)C(=O)OCC(=O)c1cccs1)c1ccccc1` (centres undefined), the Potency was “inactive”.
For `CC(=O)c1sc(NC(=O)c2ccc(Cl)cc2)nc1C`, the Potency was “inactive”.
For `CC1CCN(S(=O)(=O)c2ccc(NC(=O)c3ccccc3F)cc2)CC1`, the Potency was inconclusive: 12.6 µM [activator, partial curve].
In the case of `CC(=O)c1c(C)[nH]c(=S)c(C#N)c1-c1ccc(Cl)cc1`, the Potency is reported as inconclusive: 3.98 µM [inhibitor, partial curve].
For `Cc1cc(C)nc(-n2nc(C)cc2Nc2ccccc2)n1`, the Potency was active: 0.112 µM.
`OCCN1CCN(c2nc(-c3ccccc3)nc3c2oc2ccccc23)CC1` was tested, and the Potency was inconclusive: 15.8 µM [inhibitor, partial curve, poor fit].
In the case of `COc1cccc(/C(C)=N/NC(=O)c2ccc(N(C)C)cc2)c1`, the Potency is reported as inconclusive: 12.6 µM [inhibitor, partial curve].
With `Cc1ccc(N(CC(=O)N/N=C/c2ccc(OC3CSC3)cc2)S(=O)(=O)c2ccccc2)c(C)c1` the Potency was “inactive”.
For `FC(F)(F)c1cccc(N2CCN(c3ccc4nnc(-c5ccccc5)n4n3)CC2)c1`, the Potency was “inactive”.
With `COc1ccc(-n2c(C)cc(/C=N/Nc3nnc(C)n3N)c2C)cc1` the Potency was inconclusive: 10 µM [inhibitor, partial curve, poor fit].
`CCOc1ccc2nc(-c3ccccc3)[nH]c2c1` was tested, and the Potency was inconclusive: 12.6 µM [inhibitor, single point].
`CC(C)OC(=O)c1ccc(Cn2nnc3ccccc3c2=O)cc1` was tested, and the Potency was inconclusive: 3.55 µM [activator, single point].
`CCCn1c(=O)c(C(=O)NNC(=O)Cc2ccccc2)c(O)c2ccccc21` was tested, and the Potency was “inactive”.
With `O=C1CN(C(=O)c2ccc(Br)o2)C(c2ccc(F)cc2)c2cc(F)ccc2N1` (centres undefined) the Potency was inconclusive: 0.251 µM [inhibitor, full curve, poor fit].
With `O=C(c1cc(COc2ccc3ncccc3c2)on1)N1CCC(O)CC1` the Potency was inconclusive: 35.5 µM [activator, single point].
With `Cc1noc(C)c1COC(=O)c1ccc(F)c(S(=O)(=O)N2CCCCC2)c1` the Potency was “inactive”.
For `Cc1cc(C)cc(OCc2nnc(SCC(=O)c3ccccc3)o2)c1`, the Potency was inconclusive: 15.8 µM [inhibitor, partial curve, poor fit].
`COc1cccc(C(C(=O)NCc2ccco2)N(C(=O)Cn2nnc3ccccc32)C2CC2)c1OC` (centres undefined) was tested, and the Potency was “inactive”.
`CNC(=O)c1ccsc1NC(=O)c1ccc(S(=O)(=O)N2CCc3ccccc32)cc1` was tested, and the Potency was inconclusive: 17.8 µM [activator, single point].
With `CCOc1cccc(NC(=O)C2CC(=O)N(c3ccc(F)cc3)C2)c1` (centres undefined) the Potency was inconclusive: 11.2 µM [activator, single point].

From PubChem BioAssay AID2551 (National Center for Advancing Translational Sciences (NCATS), 2010)
% is scaled to controls: 0 for no effect and ±100 for the full control effect; potency is read from the fitted curve at half-maximal effect.
Also: nearly all actives have a fitted effect of over 60% in size.
